According to PubChem BioAssay AID652163 (Broad Institute, 2013):
About 500 (0.14%) of roughly 360,000 compounds were called active. Inconclusive means that the source gave no clear call. Such entries were picked first, then a sample of the others.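 Rule for the calls: active = mean inhibition of at least 70% across replicates, with every replicate also reaching that level; inconclusive = mean inhibition reaches 70% but some replicates fall short; inactive = mean inhibition below 70%.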

The chains behind the UniProt entries cited, without tags or fusion partners.
UniProt P26447, whole entry, looked up: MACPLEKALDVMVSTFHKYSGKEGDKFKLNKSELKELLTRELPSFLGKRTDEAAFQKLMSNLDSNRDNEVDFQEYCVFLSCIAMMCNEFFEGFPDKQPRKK

Each molecule was assayed against Protein S100-A4 (Homo sapiens) (UniProt P26447) (assay: inhibitors of S100A4-myosin IIA peptide binding, primary screen, biochemical, fluorescence polarization, TAMRA-MyoIIA peptide (AID 652163)). Conditions: at 10.7 µM, active compounds read high.
Summary of the method: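 Material: S100A4 monomer (human). Medium: Calcium-containing HEPES buffer, pH 7.2. Probe or stimulus: labelled myosin peptide probe, 5 nM. Compound dosing: one concentration per compound. Timing: polarization read 5 min after assay mix addition, stable 5–60 min. Benchmarks: DMSO as neutral control, TFP as positive control.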
In the case of `CC(=O)Nc1cc(NC(C)=O)ncn1`, the inhibition is reported as inconclusive: 87.9%. In the case of `C[C@H](CO)N1C[C@H](C)[C@@H](CN(C)CC2CCCC2)OCc2cnnn2CCCC1=O`, the inhibition is reported as inconclusive: 82%. For `CO[C@H]1CN(C)C(=O)c2cc(NC(=O)C3CC3)ccc2OC[C@H](C)N(C(=O)CN(C)C)C[C@H]1C`, the inhibition was active: 99.6%. `Cc1ccccc1S(=O)(=O)N1CC[C@@H]2[C@@H](CO)Nc3ccc(-c4ccccc4F)cc3[C@@H]21` was tested, and the inhibition was inactive: 3.62%. For `CCCNC(=O)Nc1ccc2c(c1)OC[C@@H](C)N(C(=O)C1CC1)C[C@H](C)[C@@H](OC)CN(C)C2=O`, the inhibition was active: 98.1%. `CC(C)CN1CCCC(N2CCN(c3cccc(Cl)c3)CC2)C1` (stereo unspecified) was tested, and the inhibition was inactive: -71.8%. In the case of `COc1ccc(NC(=O)Nc2ccc3c(c2)C(=O)N([C@@H](C)CO)C[C@H](C)[C@H](CN(C)CC2CCCCC2)OCCCC[C@H](C)O3)cc1`, the inhibition is reported as inactive: 1.64%. In the case of `Cc1c(CCCl)c(Cl)n2c(nc3ccccc32)c1C#N`, the inhibition is reported as inactive: -1.4%. In the case of `C[C@@H]1CCCCO[C@H](CN(C)C(=O)C2CCCCC2)[C@@H](C)CN([C@H](C)CO)C(=O)c2cc(NS(=O)(=O)c3ccc(Cl)cc3)ccc2O1`, the inhibition is reported as inactive: -3.58%. In the case of `CCCN1C[C@H](C)[C@@H](OC)CN(C)C(=O)c2ccc(NC(=O)C3CCOCC3)cc2OC[C@H]1C`, the inhibition is reported as inconclusive: 77.3%. `C[C@@H]1CN([C@H](C)CO)C(=O)Cc2cc(NS(=O)(=O)c3ccccc3)ccc2O[C@H]1CN(C)CC1CC1` was tested, and the inhibition was inactive: 13.9%. In the case of `N#C[C@H]1N[C@H](CO)[C@H]1c1ccc(C#CC2CCCC2)cc1`, the inhibition is reported as inconclusive: 88.9%. `Cc1ccc(-c2cc(C(=O)N3CC(C)CC(C)C3)c3ccccc3n2)o1` (stereo unspecified) was tested, and the inhibition was inconclusive: 76.8%. With `O=C(NCCc1ccccc1)C(=O)NCC1OCCN1S(=O)(=O)c1ccccc1` (stereo unspecified) the inhibition was inconclusive: 78.5%. For `COc1ccc(S(=O)(=O)NCC(c2cccnc2)N2CCN(Cc3ccccc3)CC2)cc1C` (stereo unspecified), the inhibition was inconclusive: 82.1%. `CN(C(=O)c1ccccc1)C1c2c(ccc3ccccc23)OCC1CO` (stereo unspecified) was tested, and the inhibition was inconclusive: 82.2%. `NS(=O)(=O)c1ccc(CNC(=O)/C=C/c2c(F)cccc2Cl)cc1` was tested, and the inhibition was inactive: -0.241%. For `CCCCNC(=O)c1cc2c(-c3ccc(Cl)cc3)nn(C)c2s1`, the inhibition was inactive: -1.68%. `O=C(NNC(=O)c1cccs1)c1ccc(S(=O)(=O)N2CCCCC2)cc1` was tested, and the inhibition was inconclusive: 103%. For `C[C@H]1CN([C@@H](C)CO)C(=O)c2cc(NC(=O)Cc3cn(C)c4ccccc34)ccc2O[C@@H]1CN(C)C(=O)Nc1ccc(F)cc1`, the inhibition was inactive: 5.98%. `CCCCCC(O)(c1ccc(OC)cc1)C(CN1CCOCC1)c1ccccc1` (stereo unspecified) was tested, and the inhibition was inactive: -4.12%. With `COc1ccc(NC(=O)Nc2cccc3c2O[C@@H](CN(C)Cc2ccc(Oc4ccccc4)cc2)[C@@H](C)CN([C@@H](C)CO)C3=O)cc1` the inhibition was inactive: -20%. In the case of `CSCCC(NC(=O)CCNC(=O)c1ccccc1Cl)c1nc2ccccc2[nH]1` (stereo unspecified), the inhibition is reported as inconclusive: 100%. In the case of `Cc1cc2cc(CNC(=O)c3ccc(S(=O)(=O)N4CCCC4)cc3)ccc2n1C`, the inhibition is reported as active: 121%. For `COc1ccc(C(=O)N(C)C2(C)CCS(=O)(=O)C2)cc1OC` (stereo unspecified), the inhibition was active: 184%. For `O=C(c1ccccc1)N1CC2(C1)[C@H](c1ccccc1)[C@@H](CO)N2Cc1ccccn1`, the inhibition was active: 107%. With `CCNC(=O)C[C@H]1CC[C@H]2[C@@H](COc3ccc(NC(=O)Nc4cccc(F)c4)cc3C(=O)N2C)O1` the inhibition was inconclusive: 95.7%. For `CCCC(/C=C/c1ccc(OC(C)=O)cc1)=C1/c2ccccc2C(=O)N1c1ccccc1`, the inhibition was inconclusive: 75.2%. In the case of `CCCCCCN(C(=O)CCCCCN1C(=O)NC(c2ccc(-c3ccccc3)cc2)C(C(=O)OCc2ccccc2)=C1C)C(C(=O)NCCCC)C1CCCCC1` (stereo unspecified), the inhibition is reported as inconclusive: 73.2%. In the case of `CCOC(=O)c1ccc2c(c1)NC(=O)C(N1CCN(c3ccc(OC)cc3)CC1)S2` (stereo unspecified), the inhibition is reported as inconclusive: 72.3%. For `C[C@H]1CN([C@@H](C)CO)C(=O)c2cc(-c3ccccc3)cnc2O[C@H]1CN(C)C(=O)Cc1ccccn1`, the inhibition was inconclusive: 89.3%. For `CO[C@H]1CN(C)C(=O)c2ccc(NC(=O)Nc3c(C)noc3C)cc2OC[C@H](C)N(CC2CC2)C[C@@H]1C`, the inhibition was inactive: 13.5%. `O=C1CN(S(=O)(=O)Cc2ccccc2)C[C@H]2[C@@H](c3ccc(C#CCC4CCCC4)cc3)[C@H](CO)N12` was tested, and the inhibition was inconclusive: 90.8%. `C[C@H]1CN([C@@H](C)CO)C(=O)c2cc(NC(=O)CCCN(C)C)ccc2O[C@H]1CN(C)S(=O)(=O)c1cn(C)cn1` was tested, and the inhibition was inconclusive: 82.7%. With `CCS(=O)(=O)Nc1ccc2c(c1)C(=O)N(C)C[C@@H](OC)[C@@H](C)CN(Cc1ccccn1)[C@@H](C)CO2` the inhibition was inconclusive: 75.7%. `N#C/C(=C\c1ccc(OCCN2CCOCC2)cc1)C(=O)Nc1ccc(S(N)(=O)=O)cc1` was tested, and the inhibition was inconclusive: 79.3%. `COc1ccc2c3c([nH]c2c1)[C@H](CO)N(C(=O)Nc1c(C)noc1C)CC31CCN(CC2CC2)CC1` was tested, and the inhibition was inconclusive: 106%. `COC(=O)c1ccccc1NC(=O)NC1CCCC1` was tested, and the inhibition was inconclusive: 78%. `Cc1cc(C(=O)N/N=C/c2ccc(OC(=O)c3ccccc3Br)cc2)n[nH]1` was tested, and the inhibition was inconclusive: 86.6%. In the case of `CCN1C(=O)CCCc2ccccc21`, the inhibition is reported as inactive: -1.99%. In the case of `CNC(=O)C[C@H]1CC[C@@H]2[C@H](COc3ccc(NC(=O)c4ccc(F)c(F)c4)cc3C(=O)N2C)O1`, the inhibition is reported as inconclusive: 104%. In the case of `C[C@@H]1CN([C@@H](C)CO)C(=O)c2cc(NC(=O)c3ccncc3)ccc2O[C@@H]1CN(C)Cc1ccncc1`, the inhibition is reported as active: 106%. In the case of `C[C@@H]1CN([C@@H](C)CO)C(=O)c2cc(C#C[C@@H](C)O)cnc2O[C@H]1CN(C)C(=O)Cc1ccncc1`, the inhibition is reported as active: 87.3%. `COc1ccccc1S(=O)(=O)N1C[C@H](O)COC[C@H]2O[C@@H](CC(=O)O)CC[C@@H]21` was tested, and the inhibition was inactive: 9.58%. With `COc1ccc(N2CCN(C(=O)c3ccccc3)CC2)c([N+](=O)[O-])c1` the inhibition was inactive: 3.95%. With `CCCCNC(=O)c1cn(CC)c2ccc(S(=O)(=O)N3CCCC3)cc2c1=O` the inhibition was inconclusive: 77.8%. For `C[C@H]1CN([C@@H](C)CO)S(=O)(=O)c2ccc(C3=CCCCC3)cc2O[C@H]1CN(C)Cc1ccccc1`, the inhibition was active: 99.6%. In the case of `C[C@H]1CN([C@@H](C)CO)S(=O)(=O)c2ccc(Br)cc2O[C@H]1CN(C)C(=O)C1CC1`, the inhibition is reported as inconclusive: 101%. With `Cc1ccc(S(=O)(=O)N2CCCC2CNC(=O)c2ccc(F)c(F)c2)cc1` (stereo unspecified) the inhibition was inconclusive: 70.4%. In the case of `Cc1ccc(-c2ccc([C@H]3[C@@H](CO)N4C(=O)CN(C(=O)Nc5cccc(F)c5)C[C@H]34)cc2)cc1`, the inhibition is reported as inconclusive: 78.7%. In the case of `Cc1ccccc1-c1ccc2c(c1)O[C@@H](CN(C)C(=O)C1CC1)[C@@H](C)CN([C@@H](C)CO)S2(=O)=O`, the inhibition is reported as inactive: 10.7%. In the case of `C[C@@H]1CN([C@@H](C)CO)C(=O)c2cc(NS(=O)(=O)c3ccc(Cl)cc3)ccc2O[C@@H](C)CCCCO[C@@H]1CN(C)C(=O)Nc1ccc2c(c1)OCO2`, the inhibition is reported as inactive: 3.11%. With `CCC(CC)C(=O)N(c1ccc(F)cc1)C1C=CS(=O)(=O)C1` (stereo unspecified) the inhibition was inconclusive: 89.7%. In the case of `COc1ccc(CN2C[C@@H](CO)O[C@@H](n3cnc4c(N5CCOCC5)ncnc43)C2)cc1`, the inhibition is reported as inconclusive: 91.4%. For `CCNC(=O)CC1C(=O)N(c2ccc(C)cc2)C(=O)N1CCc1sccc1C` (stereo unspecified), the inhibition was inconclusive: 108%. With `COc1ccc(CN(C)C(=O)Cn2cnc(C(=O)Nc3ccc(C)c(C)c3)n2)cc1OC` the inhibition was inconclusive: 82.1%. With `COc1ccc(C(=O)Nc2c(O)ccc3ccccc23)cc1` the inhibition was inactive: -0.756%. For `Cc1ccc(OCCNC(=O)C2CCCCC2)cc1`, the inhibition was inconclusive: 73%. For `CC(C)N1CCc2c(sc(NC(=O)c3cc4cc([N+](=O)[O-])ccc4s3)c2C(N)=O)C1`, the inhibition was inactive: 9.19%. For `CSc1ccccc1C(=O)NCCCn1ccnc1`, the inhibition was inactive: 2.64%. `CCOc1ccccc1NC(=O)Nc1ccc2c(c1)OCO2` was tested, and the inhibition was inconclusive: 141%. With `O=C(Cc1ccccc1F)OCN1C(=O)c2ccccc2C1=O` the inhibition was inconclusive: 125%. `COc1ccc(NC(=O)N(C)C[C@@H]2Oc3ccc(NS(C)(=O)=O)cc3CC(=O)N([C@@H](C)CO)C[C@@H]2C)cc1` was tested, and the inhibition was inconclusive: 81.8%. With `C[C@H]1CN([C@@H](C)CO)C(=O)Cc2cc(NC(=O)Cc3cn(C)c4ccccc34)ccc2O[C@H]1CN(C)S(=O)(=O)c1ccccc1` the inhibition was inactive: -14.7%. `O=C(NCC[C@H]1CC[C@H](NS(=O)(=O)c2ccccc2)[C@@H](CO)O1)c1cc(Cl)cc(Cl)c1` was tested, and the inhibition was active: 75.8%. `CCOC(=O)[C@@H]1[C@H]2COc3cc(OC)ccc3[C@@H]2N2C(=O)N(c3cccc(C)c3)C(=O)[C@]12C` was tested, and the inhibition was active: 87.2%. With `O=c1[nH][nH]c2c1[C@H](c1ccc(F)cc1)O[C@H](C1CCCCC1)C2` the inhibition was inconclusive: 79.3%. With `COc1ccc(S(=O)(=O)Nc2ccc3c(c2)C(=O)N([C@H](C)CO)C[C@H](C)[C@H](CN(C)S(=O)(=O)c2cn(C)cn2)OCCCC[C@H](C)O3)cc1` the inhibition was inconclusive: 106%. In the case of `COc1ccc(C(CNC(=O)CSc2ccccc2)N2CCOCC2)cc1` (stereo unspecified), the inhibition is reported as inconclusive: 72.7%. With `O=C(C[C@H]1C=C[C@@H](NC(=O)Cc2cccnc2)[C@H](CO)O1)Nc1ccccc1` the inhibition was inconclusive: 88%. For `CC(C)NC(=O)N[C@H]1CC[C@@H](CCn2cc(-c3ccccc3)nn2)O[C@H]1CO`, the inhibition was inconclusive: 95.6%.
